No constants are given. Whether binding was seen depends on the method and setting. In cells and extracts the contact can be indirect. A yes stands for co-enrichment or nearness to the bait. Other partners may have been found.
Target: Vir-like m6A methyltransferase-associated (KIAA1429) protein, endogenous (human (endogenous in SW480, WiDr, HEK293T)) (UniProt Q69YN4)
Test: affinity purification with mass spectrometry; immunoprecipitation of KIAA1429 from cell lysate (SW480 named for the importin α5 hit), LC-MS of the precipitate; hits filtered by p < 0.05

Amino acid sequences for entries named in this document (tags omitted).
UniProt Q69YN4: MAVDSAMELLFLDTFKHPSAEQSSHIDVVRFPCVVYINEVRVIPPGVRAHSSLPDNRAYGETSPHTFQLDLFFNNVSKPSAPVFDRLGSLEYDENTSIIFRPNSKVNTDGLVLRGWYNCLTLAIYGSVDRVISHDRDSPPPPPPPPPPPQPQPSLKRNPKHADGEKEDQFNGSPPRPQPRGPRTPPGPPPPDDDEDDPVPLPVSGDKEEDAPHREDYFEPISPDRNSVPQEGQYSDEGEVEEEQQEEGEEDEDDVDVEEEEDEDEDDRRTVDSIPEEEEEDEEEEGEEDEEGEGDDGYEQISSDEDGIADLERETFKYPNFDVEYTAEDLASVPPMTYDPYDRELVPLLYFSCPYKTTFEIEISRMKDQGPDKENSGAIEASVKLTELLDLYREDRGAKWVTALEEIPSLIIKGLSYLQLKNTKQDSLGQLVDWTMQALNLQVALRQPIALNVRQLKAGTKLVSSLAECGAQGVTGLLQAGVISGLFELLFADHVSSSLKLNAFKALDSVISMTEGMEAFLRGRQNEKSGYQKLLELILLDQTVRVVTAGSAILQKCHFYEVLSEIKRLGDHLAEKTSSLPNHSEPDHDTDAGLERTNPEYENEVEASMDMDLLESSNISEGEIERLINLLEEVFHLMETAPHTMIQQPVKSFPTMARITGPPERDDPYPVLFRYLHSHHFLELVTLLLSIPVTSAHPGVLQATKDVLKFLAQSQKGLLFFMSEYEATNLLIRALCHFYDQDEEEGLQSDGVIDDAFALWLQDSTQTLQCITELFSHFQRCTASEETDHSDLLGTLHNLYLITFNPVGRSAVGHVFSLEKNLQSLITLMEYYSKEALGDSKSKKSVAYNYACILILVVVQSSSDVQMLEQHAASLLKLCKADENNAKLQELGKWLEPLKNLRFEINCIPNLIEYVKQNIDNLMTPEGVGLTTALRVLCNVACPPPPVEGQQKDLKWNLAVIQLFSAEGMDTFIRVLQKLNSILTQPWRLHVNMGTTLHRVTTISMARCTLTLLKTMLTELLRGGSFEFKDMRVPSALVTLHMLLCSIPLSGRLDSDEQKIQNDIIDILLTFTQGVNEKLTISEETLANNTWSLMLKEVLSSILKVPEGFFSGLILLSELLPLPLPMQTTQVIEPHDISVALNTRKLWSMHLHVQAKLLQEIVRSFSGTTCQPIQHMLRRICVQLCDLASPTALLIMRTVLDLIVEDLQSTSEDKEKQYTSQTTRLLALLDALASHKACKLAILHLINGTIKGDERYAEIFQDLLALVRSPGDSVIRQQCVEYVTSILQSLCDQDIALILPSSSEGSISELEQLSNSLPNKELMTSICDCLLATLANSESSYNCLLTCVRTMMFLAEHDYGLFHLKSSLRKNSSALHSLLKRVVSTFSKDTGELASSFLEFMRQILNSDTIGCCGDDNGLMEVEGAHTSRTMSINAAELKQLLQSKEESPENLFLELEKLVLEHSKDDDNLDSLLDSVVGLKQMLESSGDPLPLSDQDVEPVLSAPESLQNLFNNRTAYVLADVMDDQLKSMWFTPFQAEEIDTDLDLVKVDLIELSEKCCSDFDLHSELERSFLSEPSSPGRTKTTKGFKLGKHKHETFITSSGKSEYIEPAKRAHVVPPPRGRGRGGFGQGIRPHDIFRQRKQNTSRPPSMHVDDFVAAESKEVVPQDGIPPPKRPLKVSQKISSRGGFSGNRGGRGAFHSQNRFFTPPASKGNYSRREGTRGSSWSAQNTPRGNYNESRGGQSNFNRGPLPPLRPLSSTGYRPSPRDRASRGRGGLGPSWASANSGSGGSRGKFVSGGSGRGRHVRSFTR
UniProt P15056: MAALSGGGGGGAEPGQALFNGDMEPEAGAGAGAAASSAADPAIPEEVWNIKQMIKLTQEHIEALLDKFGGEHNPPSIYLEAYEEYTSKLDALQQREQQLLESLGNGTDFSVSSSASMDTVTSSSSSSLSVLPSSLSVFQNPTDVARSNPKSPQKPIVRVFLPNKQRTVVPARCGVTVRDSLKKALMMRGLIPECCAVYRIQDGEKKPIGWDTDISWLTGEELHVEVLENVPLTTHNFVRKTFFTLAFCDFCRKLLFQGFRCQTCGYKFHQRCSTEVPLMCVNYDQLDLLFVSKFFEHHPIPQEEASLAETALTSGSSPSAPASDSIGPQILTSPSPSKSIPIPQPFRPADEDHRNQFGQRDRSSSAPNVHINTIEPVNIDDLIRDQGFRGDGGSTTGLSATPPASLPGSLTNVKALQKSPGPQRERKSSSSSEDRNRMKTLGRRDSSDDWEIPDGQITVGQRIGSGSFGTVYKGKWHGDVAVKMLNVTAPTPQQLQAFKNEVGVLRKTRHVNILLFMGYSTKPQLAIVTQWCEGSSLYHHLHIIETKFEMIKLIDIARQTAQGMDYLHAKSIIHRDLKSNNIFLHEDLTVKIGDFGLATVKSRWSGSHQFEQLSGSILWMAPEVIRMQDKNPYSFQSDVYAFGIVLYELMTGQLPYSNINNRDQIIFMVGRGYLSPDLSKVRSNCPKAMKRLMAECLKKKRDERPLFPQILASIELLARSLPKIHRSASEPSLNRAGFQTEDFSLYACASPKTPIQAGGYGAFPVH
UniProt P52294: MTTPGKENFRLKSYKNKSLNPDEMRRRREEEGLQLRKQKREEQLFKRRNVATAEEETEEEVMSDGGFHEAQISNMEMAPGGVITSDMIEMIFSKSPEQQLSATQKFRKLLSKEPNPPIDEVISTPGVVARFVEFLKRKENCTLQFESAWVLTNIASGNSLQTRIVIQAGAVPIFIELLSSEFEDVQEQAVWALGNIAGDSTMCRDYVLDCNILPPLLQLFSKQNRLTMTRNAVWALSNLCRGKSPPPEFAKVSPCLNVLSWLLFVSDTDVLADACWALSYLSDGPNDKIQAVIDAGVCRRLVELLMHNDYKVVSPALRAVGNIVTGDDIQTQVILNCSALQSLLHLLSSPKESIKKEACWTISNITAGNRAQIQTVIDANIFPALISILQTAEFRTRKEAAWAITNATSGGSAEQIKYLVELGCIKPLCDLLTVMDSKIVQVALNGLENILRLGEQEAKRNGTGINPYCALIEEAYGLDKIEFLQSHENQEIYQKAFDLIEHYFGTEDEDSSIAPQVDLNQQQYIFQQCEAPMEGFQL

“BRAF, endogenous in SW480 cells (from UniProt P15056 1-766) (enzyme)” was tested, and the binding was “binds”.
In the case of “importin α5, endogenous (from UniProt P52294 1-538)”, the binding is reported as “binds”.
